# According to publication PMC12582974:
# Chains of the proteins cited; added tags and fusions are not shown.
# UniProt Q8N122: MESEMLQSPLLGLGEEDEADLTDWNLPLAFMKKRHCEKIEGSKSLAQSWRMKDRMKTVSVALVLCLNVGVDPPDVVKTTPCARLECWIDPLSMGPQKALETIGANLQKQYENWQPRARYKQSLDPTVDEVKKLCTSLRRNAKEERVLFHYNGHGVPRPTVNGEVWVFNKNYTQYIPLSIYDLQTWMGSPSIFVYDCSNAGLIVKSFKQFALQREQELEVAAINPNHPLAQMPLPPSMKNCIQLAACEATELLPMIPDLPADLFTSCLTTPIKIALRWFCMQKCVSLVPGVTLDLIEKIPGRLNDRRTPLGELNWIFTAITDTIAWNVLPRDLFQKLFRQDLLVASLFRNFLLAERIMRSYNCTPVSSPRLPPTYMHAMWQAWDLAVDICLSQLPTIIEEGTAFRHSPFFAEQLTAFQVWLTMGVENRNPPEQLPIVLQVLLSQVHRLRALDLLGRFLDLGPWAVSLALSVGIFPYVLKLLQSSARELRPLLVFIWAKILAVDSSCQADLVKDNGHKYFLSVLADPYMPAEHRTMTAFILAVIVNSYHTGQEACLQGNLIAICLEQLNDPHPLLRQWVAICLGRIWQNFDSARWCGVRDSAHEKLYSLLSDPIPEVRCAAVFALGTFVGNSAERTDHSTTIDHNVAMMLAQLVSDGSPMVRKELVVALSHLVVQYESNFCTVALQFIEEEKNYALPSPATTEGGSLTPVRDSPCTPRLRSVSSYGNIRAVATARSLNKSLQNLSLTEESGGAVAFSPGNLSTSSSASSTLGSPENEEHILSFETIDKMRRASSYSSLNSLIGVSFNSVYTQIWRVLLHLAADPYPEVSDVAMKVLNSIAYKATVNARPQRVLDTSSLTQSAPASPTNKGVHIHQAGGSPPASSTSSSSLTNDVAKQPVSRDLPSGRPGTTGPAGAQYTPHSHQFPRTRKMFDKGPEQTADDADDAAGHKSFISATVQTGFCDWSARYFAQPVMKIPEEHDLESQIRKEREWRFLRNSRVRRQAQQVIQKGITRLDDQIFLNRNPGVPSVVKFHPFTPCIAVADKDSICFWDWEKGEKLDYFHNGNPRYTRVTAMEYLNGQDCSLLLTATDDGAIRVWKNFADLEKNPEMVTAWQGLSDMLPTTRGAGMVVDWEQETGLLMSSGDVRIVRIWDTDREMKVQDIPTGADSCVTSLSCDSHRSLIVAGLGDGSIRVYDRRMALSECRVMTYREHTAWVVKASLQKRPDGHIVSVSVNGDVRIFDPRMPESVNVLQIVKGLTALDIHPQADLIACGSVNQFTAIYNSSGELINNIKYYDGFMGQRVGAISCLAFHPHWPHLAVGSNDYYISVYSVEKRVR
# UniProt Q9Y265: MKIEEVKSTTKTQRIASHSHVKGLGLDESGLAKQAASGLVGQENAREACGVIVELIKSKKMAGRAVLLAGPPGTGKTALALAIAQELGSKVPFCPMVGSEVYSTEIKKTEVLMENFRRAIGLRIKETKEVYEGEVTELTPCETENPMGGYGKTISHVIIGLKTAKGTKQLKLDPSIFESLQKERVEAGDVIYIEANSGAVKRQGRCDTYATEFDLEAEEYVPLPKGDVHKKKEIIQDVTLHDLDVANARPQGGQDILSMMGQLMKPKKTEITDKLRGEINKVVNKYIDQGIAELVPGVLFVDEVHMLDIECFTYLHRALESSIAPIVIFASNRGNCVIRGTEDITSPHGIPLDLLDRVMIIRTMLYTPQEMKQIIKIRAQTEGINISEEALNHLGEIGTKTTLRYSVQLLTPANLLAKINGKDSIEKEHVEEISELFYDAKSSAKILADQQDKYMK
# UniProt Q9Y4R8: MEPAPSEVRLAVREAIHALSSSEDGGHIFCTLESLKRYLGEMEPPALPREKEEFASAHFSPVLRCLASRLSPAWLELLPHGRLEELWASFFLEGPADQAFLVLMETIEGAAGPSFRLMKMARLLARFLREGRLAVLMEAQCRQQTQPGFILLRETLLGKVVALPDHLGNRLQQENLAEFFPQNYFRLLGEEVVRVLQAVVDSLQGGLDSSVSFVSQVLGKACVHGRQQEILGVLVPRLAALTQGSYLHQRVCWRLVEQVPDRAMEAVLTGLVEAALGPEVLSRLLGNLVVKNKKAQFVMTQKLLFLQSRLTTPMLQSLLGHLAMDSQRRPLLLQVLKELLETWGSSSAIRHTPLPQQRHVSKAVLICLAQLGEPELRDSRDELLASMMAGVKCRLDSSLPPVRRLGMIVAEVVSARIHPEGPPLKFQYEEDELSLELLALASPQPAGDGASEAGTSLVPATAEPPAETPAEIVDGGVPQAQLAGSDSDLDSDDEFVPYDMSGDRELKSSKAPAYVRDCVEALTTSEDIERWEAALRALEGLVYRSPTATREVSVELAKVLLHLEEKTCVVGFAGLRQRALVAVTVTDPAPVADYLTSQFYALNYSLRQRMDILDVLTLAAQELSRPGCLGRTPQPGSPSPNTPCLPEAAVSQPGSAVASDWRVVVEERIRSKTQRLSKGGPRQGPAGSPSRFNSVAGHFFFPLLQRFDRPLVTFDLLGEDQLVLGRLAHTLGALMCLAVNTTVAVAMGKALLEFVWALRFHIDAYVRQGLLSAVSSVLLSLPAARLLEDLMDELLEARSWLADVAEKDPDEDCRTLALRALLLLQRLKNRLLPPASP
# Results are given in words; binding and its absence hold for the method and conditions named. In cells and extracts the contact can be indirect. Here binding means that the protein was enriched with, or labelled near, the bait; the list need not be complete.
# Molecular target: T1, endogenous WAC (human (endogenous in HEK293T)) (UniProt Q9BTA9)
# T1 sequence: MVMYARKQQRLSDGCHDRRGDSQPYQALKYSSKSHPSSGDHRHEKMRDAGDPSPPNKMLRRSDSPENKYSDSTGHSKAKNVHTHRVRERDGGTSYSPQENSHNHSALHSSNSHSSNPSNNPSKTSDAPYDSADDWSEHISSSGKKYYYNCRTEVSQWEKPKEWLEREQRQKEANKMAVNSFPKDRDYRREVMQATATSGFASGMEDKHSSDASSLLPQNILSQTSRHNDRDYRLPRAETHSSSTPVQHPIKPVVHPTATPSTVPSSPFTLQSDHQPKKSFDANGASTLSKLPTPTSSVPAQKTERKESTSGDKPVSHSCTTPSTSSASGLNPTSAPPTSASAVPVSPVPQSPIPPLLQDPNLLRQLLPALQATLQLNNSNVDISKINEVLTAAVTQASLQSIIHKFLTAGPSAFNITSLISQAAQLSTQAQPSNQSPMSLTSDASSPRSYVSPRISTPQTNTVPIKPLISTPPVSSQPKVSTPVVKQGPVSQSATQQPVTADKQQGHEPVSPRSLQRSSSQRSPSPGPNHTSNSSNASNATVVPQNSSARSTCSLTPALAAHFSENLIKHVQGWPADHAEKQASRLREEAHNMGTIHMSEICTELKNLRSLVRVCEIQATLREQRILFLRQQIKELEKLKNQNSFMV
# Test: affinity purification with mass spectrometry; endogenous WAC immunoprecipitated with a WAC antibody from HEK293T lysate; interactors identified by mass spectrometry
substance,measurement,value
endogenous RAPTOR (from UniProt Q8N122 1-1335),binding,binds
endogenous RUVBL1 (from UniProt Q9Y265 1-456),binding,binds
endogenous TELO2 (from UniProt Q9Y4R8 1-837),binding,binds
